From PubChem BioAssay AID588590 (National Center for Advancing Translational Sciences (NCATS), 2011)
In all, about 390,000 compounds went through this assay and about 4,000 (1%) were called active. The shares of active, inactive and inconclusive entries below differ from those in the screen. Calls follow the shape of the dose curve; as a rule, active = well fitted inhibition curve with a large enough effect; inconclusive = small, poorly fitted or top-dose-only effect, or another doubt; inactive = no such curve, though single readings can be large or run the other way. Potencies of inconclusive entries are doubtful fits and often do not repeat.

Amino acid sequences for entries named in this document (tags omitted). A change or cut given only in a name is not applied to a line headed by its entry.
UniProt Q9UNA4: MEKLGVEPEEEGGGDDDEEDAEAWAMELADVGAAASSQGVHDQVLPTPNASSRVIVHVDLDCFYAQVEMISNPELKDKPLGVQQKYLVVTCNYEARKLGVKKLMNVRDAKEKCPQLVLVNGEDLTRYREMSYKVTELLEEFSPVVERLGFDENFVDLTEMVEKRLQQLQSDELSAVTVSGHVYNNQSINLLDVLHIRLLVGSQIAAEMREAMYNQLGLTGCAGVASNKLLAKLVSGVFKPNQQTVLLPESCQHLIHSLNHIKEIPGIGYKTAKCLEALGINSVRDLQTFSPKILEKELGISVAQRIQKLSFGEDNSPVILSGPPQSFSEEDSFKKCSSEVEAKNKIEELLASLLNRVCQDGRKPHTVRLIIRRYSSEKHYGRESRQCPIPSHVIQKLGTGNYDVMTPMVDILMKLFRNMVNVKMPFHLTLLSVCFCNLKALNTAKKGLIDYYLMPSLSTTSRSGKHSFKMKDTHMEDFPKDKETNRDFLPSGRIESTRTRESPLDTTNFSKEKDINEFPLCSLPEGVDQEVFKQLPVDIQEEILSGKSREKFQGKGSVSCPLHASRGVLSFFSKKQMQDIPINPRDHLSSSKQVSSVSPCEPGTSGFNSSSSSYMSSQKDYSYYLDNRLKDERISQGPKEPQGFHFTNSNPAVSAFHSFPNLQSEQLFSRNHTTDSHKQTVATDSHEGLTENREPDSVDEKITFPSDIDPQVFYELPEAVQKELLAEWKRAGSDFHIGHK

molecular target: DNA polymerase iota (Homo sapiens) (UniProt Q9UNA4); experiment: qHTS for Inhibitors of Polymerase Iota; conditions: Pol iota fluorescent replication assay, 10 min; series mostly up to 115 µM; activity, negative = inhibition: at the top concentration
In short: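 Pol iota at 10 nM preincubated 15 min with compounds at room temperature; reaction started with fluorescent substrate, 50 nM final. Fluorescence read kinetically at 0 and 10 min; buffer-only wells as negative control.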
Potency is read from the fitted curve at half-maximal effect.

Potency, inconclusive:
O=c1/c(=C/c2ccco2)sc2nc(-c3ccccc3Br)nn12 11.2 µM [inhibitor, partial curve, poor fit]
COC(=O)c1ccc(COc2ccc(Cl)cc2)o1 5.62 µM [inhibitor, full curve, poor fit]
COc1ccc(-c2ccc3c(c2)S(=O)(=O)c2cccc(C(=O)N4CCN(C5CCCCC5)CC4)c2C3=O)cc1OC 8.91 µM [inhibitor, partial curve, poor fit]
CN(C)c1ccnc2sc(C(=O)c3ccc(Br)cc3)c(N)c12 89.1 µM [inhibitor, partial curve]
NC(=O)c1ccc([N+](=O)[O-])cc1SCc1ccccc1 25.1 µM [inhibitor, single point]
COc1ccccc1/C=C/C1(C(=O)NC2CCCC2)CC(=O)N1c1ccc(F)cc1 (stereo not drawn) 2.82 µM [inhibitor, full curve, poor fit]
O=C(N/N=C/c1ccc(Br)cc1)c1ccc(Br)o1 89.1 µM [inhibitor, single point]
CCCCCCNC(=O)c1ccc(Br)o1 3.16 µM [inhibitor, partial curve, poor fit]
COc1cccc(NC(=O)C2CCN(S(=O)(=O)c3c(C)noc3/C=C/c3cccs3)CC2)c1 89.1 µM [inhibitor, single point]
CCn1c(/C=C2\C(=O)N(C(C)C)c3ccccc32)nc2ccccc2c1=O 20 µM [inhibitor, single point]
Cc1cccc(N2CCN(C(=O)Cc3ccc(Br)cc3)CC2)c1C 11.2 µM [inhibitor, full curve, poor fit]
O=C(Nc1ccc(S(=O)(=O)Nc2nccs2)cc1)c1ccc(=O)[nH]c1 15.8 µM [inhibitor, full curve, poor fit]
COc1cc(C(=O)NC2CCN(C)CC2)ccc1Nc1ncc2c(n1)N(C1CCCC1)CCC(=O)N2C(C)C 31.6 µM [inhibitor, single point]
N#CC1=C(N)NC(SCC(=O)Nc2ccc(Br)cc2)=C(C#N)C12CCCCC2 31.6 µM [inhibitor, partial curve, poor fit]
CSCCC(NC(=O)OC(C)(C)C)C(=O)Oc1ccc2c(=O)c(-c3ccc4c(c3)OCCO4)coc2c1 (stereo not drawn) 25.1 µM [inhibitor, partial curve, poor fit]
O=C1C(NS(=O)(=O)c2ccc(Br)cc2)=C(N2CCCCC2)C(=O)c2ccccc21 17.8 µM [inhibitor, full curve]
Cc1ccc(C)c(CN2C(=O)CSc3ccc(C(=O)NCc4ccccc4)cc32)c1 89.1 µM [inhibitor, single point]
Cc1cc(N(C)C)c(C#N)c(N2CCCCC2)n1 11.2 µM [inhibitor, full curve, poor fit]
COc1ccc(S(=O)(=O)N2CCC(O)(c3ccc4c(c3)OCO4)CC2)cc1 89.1 µM [inhibitor, single point]
O=C(O)c1cc(N2C(=O)C3CC=CCC3C2=O)ccc1NCc1cccnc1 (stereo not drawn) 22.4 µM [inhibitor, partial curve, poor fit]
O=C1CCC(=O)c2ccc3c4c(ccc1c24)CC3 50.1 µM [inhibitor, partial curve, poor fit]
Cc1ccc(OCc2cc(=O)n3cc(C)sc3n2)c(NC(=O)c2ccco2)c1 89.1 µM [inhibitor, single point]
Nc1nnc2c(n1)CCCC2 20 µM [inhibitor, full curve, poor fit]
CC(C)C[C@@]12C(=O)N(c3cccc(F)c3)C(=O)N1[C@H](c1ccc(Cl)cc1)[C@@H]1C(=O)N(C3CCCCC3)C(=O)[C@@H]12 5.01 µM [inhibitor, full curve, poor fit]
CN(CC(=O)Nc1ccc(OC(F)(F)F)cc1)C(=O)Cc1ccc2c(c1)CCC2 44.7 µM [inhibitor, partial curve]
CCOC=C1C(=O)N(C(C)=O)c2cc(OC)c(OC)cc21 56.2 µM [inhibitor, partial curve, poor fit]
Cc1cccc(NC(=O)c2onc3c2CCCC3)c1C 4.47 µM [inhibitor, full curve, poor fit]
COCc1[nH]c(=S)c(C#N)cc1C(=O)OC 10 µM [inhibitor, partial curve, poor fit]
Brc1ccc(C2Nc3cccc4cccc(c34)N2)o1 10 µM [inhibitor, partial curve, poor fit]
C=CCn1c(=NC(=O)c2ccc(S(=O)(=O)N3CCCC3)cc2)sc2cc(NC(C)=O)ccc21 39.8 µM [inhibitor, partial curve, poor fit]
CCOc1ccc(C(=O)NCC(=O)OCC(=O)Nc2ccccc2OC)cc1 39.8 µM [inhibitor, single point]
COc1cc(CN2CCCCCC2)cc(OC)c1 17.8 µM [inhibitor, full curve, poor fit]
Cc1ccc2occ(CC(=O)Nc3c(C)cccc3C)c2c1 89.1 µM [inhibitor, partial curve]
COc1ccc(COC(=O)N/C=C/c2ccco2)cc1 22.4 µM [inhibitor, single point]
COc1ccc(N(CC(=O)NCc2cccs2)S(=O)(=O)c2cccnc2)cc1 44.7 µM [inhibitor, partial curve, poor fit]
CCOc1cc(/C=N/Nc2nn3cnnc3c3ccccc23)ccc1O 100 µM [inhibitor, partial curve, poor fit]
C/C(=N\Nc1nc(C(=O)O)cs1)c1ccccc1 89.1 µM [inhibitor, single point]
O=C(/C=C/c1cccs1)NC1CC1 31.6 µM [inhibitor, single point]
CCOC(=O)CSc1nc2c(sc(=S)n2CCc2ccccc2)c(=O)n1Cc1ccco1 10 µM [inhibitor, partial curve, poor fit]
O=C(Nc1cccc(-c2nnc(-c3ccccc3)o2)c1)C1CCCCC1 5.01 µM [inhibitor, full curve, poor fit]
C/C(=N/Nc1nc(-c2ccccc2)c(CC(=O)O)s1)c1ccccc1 17.8 µM [inhibitor, single point]
O=C(/C=C/c1ccncc1)c1ccc(NC(=O)c2ccccc2F)cc1 12.6 µM [inhibitor, full curve, poor fit]
COc1cc(CN2CCN(c3cccc(C)c3C)CC2)cc(OC)c1O 17.8 µM [inhibitor, partial curve, poor fit]
CN(C)S(=O)(=O)c1ccc(NC(=O)c2ccc3ncsc3c2)cc1 6.31 µM [inhibitor, partial curve]
Cc1cccc(N2CCN(C(=O)Cc3c(C(=O)O)c(C)cn3C)CC2C)c1 (stereo not drawn) 100 µM [inhibitor, partial curve, poor fit]
COc1ccc(NC(=O)Cn2c(=O)oc3cc(S(=O)(=O)N4CCCC4)ccc32)cc1OC 100 µM [inhibitor, partial curve, poor fit]
Cc1[nH]n(-c2ccccc2)c(=O)c1C(=O)c1cccc(F)c1 15.8 µM [inhibitor, partial curve, poor fit]

In the list so far, 3 contain a cyano group:
Potency, inconclusive:
N#CC1=C(N)NC(SCC(=O)Nc2ccc(Br)cc2)=C(C#N)C12CCCCC2 31.6 µM [inhibitor, partial curve, poor fit]
Cc1cc(N(C)C)c(C#N)c(N2CCCCC2)n1 11.2 µM [inhibitor, full curve, poor fit]
COCc1[nH]c(=S)c(C#N)cc1C(=O)OC 10 µM [inhibitor, partial curve, poor fit]

Following part.

Potency, active:
CCc1cccc(NC(=O)Cn2nc(C)c3sc4ccccc4c3c2=O)c1 89.1 µM
Cc1ccc(C2C(C#N)=C(N)SC(N)=C2C#N)c(C)c1 25.1 µM
O=C(Nc1nc(-c2ccccn2)cs1)C1CC(=O)N(c2ccc3c(c2)OCCO3)C1 (stereo not drawn) 20 µM

activity, negative = inhibition, inactive:
CCc1nnc(SCc2nc(-c3cccc(C)c3)oc2C)c2cc3sc(C)cc3n12 11.7%
COc1cccc(NC(=O)c2cc(-c3ccc(OC)cc3OC)nc3ccccc23)c1 -6.29%
COC(=O)c1ccc(C(=O)Nc2ccc3nc(-c4cccnc4)[nH]c3c2)cc1 -3.79%
CCc1nnc(NC(=O)CC(=O)Nc2ccccc2C(=O)O)s1 -9.43%
CC(C)OCCCn1c(=S)[nH]c2cc3c(cc2c1=O)OCO3 17.2%
CC(=O)c1cccc(NC(=O)C(C)OC(=O)c2ccc(S(C)(=O)=O)c([N+](=O)[O-])c2)c1 (stereo not drawn) -0.929%
Cc1cc2c(cc1S(=O)(=O)NCc1ccc(F)cc1)OCC(=O)N2 68.5%
Cc1nc2ccccc2cc1C(=O)N/N=C/c1ccccc1[N+](=O)[O-] 436%
CN(C)C(=O)c1ccc(N=Nc2c(O)c3ccccc3[nH]c2=O)cc1 9.95%
CCCCC(=O)Nc1nnc(/C=C/c2ccc(OC)cc2)s1 -19.2%
CC(=O)c1ccc(NC(=O)c2sc(-n3nc(C)c(Cc4ccc5c(c4)OCO5)c3C)nc2C)cc1 -21.7%
CCC1CCCCN1CCCNC(=O)c1ccc2c(c1)N(Cc1cccc(Cl)c1)C(=O)c1ccccc1S2(=O)=O (stereo not drawn) -4.06%
CCOC(=O)C1(Cc2ccccc2C)CCCN(C(=O)c2ccc(OC)o2)C1 (stereo not drawn) 17.9%
